Patent US20130217633A1
Results are given in words; binding and its absence hold for the method and conditions named. In cells and extracts the contact can be indirect. Some entries that bind do so weakly or less than the wild type.

Amino acid sequences for entries named in this document (tags omitted).
UniProt P10415: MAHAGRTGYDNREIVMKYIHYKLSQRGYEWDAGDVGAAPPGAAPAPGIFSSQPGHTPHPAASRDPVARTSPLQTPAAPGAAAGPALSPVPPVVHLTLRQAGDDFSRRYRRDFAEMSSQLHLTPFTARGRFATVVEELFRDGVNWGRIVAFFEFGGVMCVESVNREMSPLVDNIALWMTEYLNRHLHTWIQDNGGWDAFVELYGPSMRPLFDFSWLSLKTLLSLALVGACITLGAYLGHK

Target: wild type Bcl-2 (overexpressed in WEHI7.2 cells) (UniProt P10415)
Assay: biotin-streptavidin pull-down from WEHI7.2 lysate, western blot for Bcl-2

- binding: binds
Binder: NVYTEIKCNSLLPLAAIVRV (biotin (position not given)) [biotin-IDPDD/AA]
